{
  "source": "patent US11396497B2",
  "about": "“Proteasome inhibitors” (New Mexico Tech University Research Park Corporation, priority 2018, dated 2022)",
  "key": {"[1]": {"molecular_target": "T1, chymotrypsin-like activity of the 26S proteasome (Homo sapiens, UniProt P28074)", "T1 construct": "endogenous in cells; host or cells: Jurkat (ATCC TIB-152, E6-1 clone) cell lysate", "T1 sequence (P28074 60-263)": "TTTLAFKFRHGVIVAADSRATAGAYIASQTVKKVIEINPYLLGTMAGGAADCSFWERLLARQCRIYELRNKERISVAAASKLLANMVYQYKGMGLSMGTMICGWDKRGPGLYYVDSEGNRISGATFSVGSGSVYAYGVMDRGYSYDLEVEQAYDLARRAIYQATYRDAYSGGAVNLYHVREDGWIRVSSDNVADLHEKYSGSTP", "assay": "Proteasome assay, chymotrypsin-like (ChT-L) activity, Suc-LLVY-AMC, Jurkat cell lysate", "format": "biochemical", "procedure": "The lysate was stored at −80° C. until the sample was used for the proteasome assay.\nThe compounds were diluted with lysis buffer; 10 μL of the compound-containing solution was added to the test wells at ten times the final concentration. […] The results are reported as the average of at least 3 technical replicates of IC50 values for proteasome inhibition."}, "[2]": {"tested_on": "cancer cells (MCF7, MDA-MB-231, RPMI 8226)", "assay": "MTT cytotoxicity, cell line not given"}},
  "note": "For at least one compound, name, drawing or mass did not settle the structure.",
  "data": [
    {"smiles": "CC[C@H](C)[C@@H]1C(=O)O[C@H]1C(=O)N[C@H](C(=O)N[C@@H](COCc1ccccc1)C(=O)NCc1ccccc1)C(C)C", "note": "[Compound 12a]", "values": [
      {"measurement": "times more active as an inhibitor of the proteasome than carfilzomib", "setting": "[1]", "value": 10, "unit": "times"},
      {"measurement": "completeness of cancer cell killing (in words)", "setting": "[2]", "value": "killed cancer cells completely"}
    ]}
  ]
}
